Experimental data: PubChem BioAssay AID1224826 (NIAID, 2016)

Test: 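Regulators of Tlr4 signalling leading to Tnf-alpha expression in macrophages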 (primary screen)
Cells: RAW264.7 G9 macrophages from mouse bearing reporters for p65 (GFP) and the Tnf promoter (mCherry)
Reagents: siRNA pool against mouse genes, 100 nM
Time to read-out: 16 h of LPS stimulation, after 2 days of siRNA transfection
Conditions: bacterial lipopolysaccharide (Salmonella minnesota R595), 10 ng/ml
Measured: 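Imaged Tnf reporter mCherry in nuclei, minus background, normalised per plate to the median and expressed as robust z-scores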
Reading the numbers: Tnf reporter robust z-score: higher = stronger Tnf promoter reporter signal after LPS; Tnf reporter intensity: higher = stronger Tnf promoter reporter signal
Call rule: 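Called active when robust z-score is at most -1.3, matching the median of the Tlr4 knock-down control, or over 3; control wells and wells with under 50 cells never active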
Meaning of the calls: active = Tnf reporter clearly lowered or raised; inactive = no clear change in Tnf reporter
Shown is an unselected part of about 17,000 reagents tested. About 1,110 of them (6.6%) were called active. 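Active means lowered or raised reporter signal; replicate intensities are raw and not normalised per plate.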

gene	PubChem SID	Tnf reporter robust z-score	fewer than 50 cells in well	Tnf reporter intensity, replicate 1	Tnf reporter intensity, replicate 2	Outcome
Vmn1r56 (GeneID 81015)	SID315475780	0.84	enough cells in well	132	132	inactive
A630005I04Rik (retired record) (GeneID 320743)	SID315481387	-1.37	enough cells in well	90.5	111	active
Best2 (GeneID 212989)	SID315477771	1.56	enough cells in well	183	135	inactive
Fh1 (GeneID 14194)	SID315466683	0.72	enough cells in well	361	255	inactive
Tnfrsf21 (GeneID 94185)	SID315476047	-1.29	enough cells in well	159	58.8	inactive
Enox1 (GeneID 239188)	SID315479428	1.4	enough cells in well	171	224	inactive
P2ry10b (GeneID 213438)	SID315477803	-1.23	enough cells in well	100	89.5	inactive
Abcb1b (GeneID 18669)	SID315468489	0.31	enough cells in well	261	174	inactive
Spata20 (GeneID 217116)	SID315478073	3.1	enough cells in well	235	102	active
Mkrn3 (GeneID 22652)	SID315470093	0.56	enough cells in well	216	156	inactive
Magee1 (GeneID 107528)	SID315476616	-0.41	enough cells in well	151	136	inactive
Klhl24 (GeneID 75785)	SID315475203	-0.51	enough cells in well	193	47.9	inactive
Bdkrb1 (GeneID 12061)	SID315465623	0.67	enough cells in well	252	383	inactive
H2-Eb1 (GeneID 14969)	SID315467107	-0.28	enough cells in well	227	160	inactive
Or8h8 (GeneID 258842)	SID315480484	-0.18	enough cells in well	189	131	inactive
Vmn1r181 (GeneID 404289)	SID315481922	-0.18	enough cells in well	122	75.4	inactive
Prrg4 (GeneID 228413)	SID315478631	0.28	enough cells in well	135	198	inactive
Suds3 (GeneID 71954)	SID315474391		fewer than 50 cells per well; well left out of calls	181	60.5	inactive
Tdrp (GeneID 72148)	SID315474474	-0.59	enough cells in well	201	67.3	inactive
Sdc3 (GeneID 20970)	SID315469551	0.33	enough cells in well	189	95	inactive
Iqgap1 (GeneID 29875)	SID315470729	-0.95	enough cells in well	202	74.2	inactive
Dlec1 (GeneID 320256)	SID315481269	2.5	enough cells in well	432	228	inactive
Tk1 (GeneID 21877)	SID315469733	0.39	enough cells in well	199	124	inactive
Lhx8 (GeneID 16875)	SID315467749	2.69	enough cells in well	373	270	inactive
Pik3ca (GeneID 18706)	SID315468510	-0.42	enough cells in well	116	187	inactive
Mxra8 (GeneID 74761)	SID315475039	3.13	enough cells in well	422	180	active
Slc26a10 (GeneID 216441)	SID315477999	0	enough cells in well	138	213	inactive
Speer4d (GeneID 360220)	SID315481732		fewer than 50 cells per well; well left out of calls	93.2	49.3	inactive
Slco3a1 (GeneID 108116)	SID315476698		fewer than 50 cells per well; well left out of calls	101	80.1	inactive
Nasp (GeneID 50927)	SID315470887	-0.98	enough cells in well	103	98	inactive
Pcp2 (GeneID 18545)	SID315468413		fewer than 50 cells per well; well left out of calls	214	130	inactive
Srpk3 (GeneID 56504)	SID315471578	-0.4	enough cells in well	141	123	inactive
Or9g3 (GeneID 258561)	SID315480228	0.15	enough cells in well	191	163	inactive
Vdac3 (GeneID 22335)	SID315469991	-0.85	enough cells in well	86.1	37.7	inactive
Lpar4 (GeneID 78134)	SID315475541	-0.04	enough cells in well	195	322	inactive
Fen1 (GeneID 14156)	SID315466653	-0.63	enough cells in well	170	192	inactive
Sdhd (GeneID 66925)	SID315472719	0.54	enough cells in well	322	261	inactive
Akr1e1 (GeneID 56043)	SID315471351	-0.88	enough cells in well	124	113	inactive
Gdf6 (GeneID 242316)	SID315479607	0.7	enough cells in well	234	217	inactive
Dlgap3 (GeneID 242667)	SID315479638		fewer than 50 cells per well; well left out of calls	85.5	91.4	inactive
Nubp2 (GeneID 26426)	SID315470401	-0.41	enough cells in well	187	173	inactive
Drc2 (GeneID 105833)	SID315476511	-0.54	enough cells in well	154	111	inactive
Bmp6 (GeneID 12161)	SID315465652		fewer than 50 cells per well; well left out of calls	68.1	115	inactive
Rela (GeneID 19697)	SID315468940	-0.36	enough cells in well	261	187	inactive
Prl3d1 (GeneID 18775)	SID315468557	0.3	enough cells in well	146	254	inactive
Glis1 (GeneID 230587)	SID315478792	0.33	enough cells in well	272	154	inactive
Cyp2d10 (GeneID 13101)	SID315466234	-0.25	enough cells in well	175	155	inactive
Mtch2 (GeneID 56428)	SID315471527	-0.19	enough cells in well	201	106	inactive
Ywhab (GeneID 54401)	SID315471227	-0.7	enough cells in well	171	180	inactive
Slc18a3 (GeneID 20508)	SID315469282	1.07	enough cells in well	132	144	inactive
Il17ra (GeneID 16172)	SID315467439	0.03	enough cells in well	233	158	inactive
Ppib (GeneID 19035)	SID315468654	0.91	enough cells in well	174	122	inactive
Pheta1 (GeneID 231717)	SID315478920		fewer than 50 cells per well; well left out of calls	414	249	inactive
Rapsn (GeneID 19400)	SID315468896	-0.81	enough cells in well	268	121	inactive
4930590J08Rik (GeneID 381798)	SID315481805		fewer than 50 cells per well; well left out of calls	185	50.6	inactive
Senp5 (GeneID 320213)	SID315481262	1.02	enough cells in well	149	122	inactive
Ppp1r8 (GeneID 100336)	SID315476220		fewer than 50 cells per well; well left out of calls	94.2	29.2	inactive
Vmn1r40 (GeneID 113855)	SID315476983	0.63	enough cells in well	175	83	inactive

Records listed so far whose target name begins with M or m:
gene	PubChem SID	Tnf reporter robust z-score	fewer than 50 cells in well	Tnf reporter intensity, replicate 1	Tnf reporter intensity, replicate 2	Outcome
Mkrn3 (GeneID 22652)	SID315470093	0.56	enough cells in well	216	156	inactive
Magee1 (GeneID 107528)	SID315476616	-0.41	enough cells in well	151	136	inactive
Mxra8 (GeneID 74761)	SID315475039	3.13	enough cells in well	422	180	active
Mtch2 (GeneID 56428)	SID315471527	-0.19	enough cells in well	201	106	inactive
